Measurements as given in the supplement of paper PMC6411743.
± gives the standard deviation of the averaged measurements. The list shows a part of the results.

Amino acid sequences for entries named in this document (tags omitted). A change or cut given only in a name is not applied to a line headed by its entry.
UniProt Q641Q2, whole entry: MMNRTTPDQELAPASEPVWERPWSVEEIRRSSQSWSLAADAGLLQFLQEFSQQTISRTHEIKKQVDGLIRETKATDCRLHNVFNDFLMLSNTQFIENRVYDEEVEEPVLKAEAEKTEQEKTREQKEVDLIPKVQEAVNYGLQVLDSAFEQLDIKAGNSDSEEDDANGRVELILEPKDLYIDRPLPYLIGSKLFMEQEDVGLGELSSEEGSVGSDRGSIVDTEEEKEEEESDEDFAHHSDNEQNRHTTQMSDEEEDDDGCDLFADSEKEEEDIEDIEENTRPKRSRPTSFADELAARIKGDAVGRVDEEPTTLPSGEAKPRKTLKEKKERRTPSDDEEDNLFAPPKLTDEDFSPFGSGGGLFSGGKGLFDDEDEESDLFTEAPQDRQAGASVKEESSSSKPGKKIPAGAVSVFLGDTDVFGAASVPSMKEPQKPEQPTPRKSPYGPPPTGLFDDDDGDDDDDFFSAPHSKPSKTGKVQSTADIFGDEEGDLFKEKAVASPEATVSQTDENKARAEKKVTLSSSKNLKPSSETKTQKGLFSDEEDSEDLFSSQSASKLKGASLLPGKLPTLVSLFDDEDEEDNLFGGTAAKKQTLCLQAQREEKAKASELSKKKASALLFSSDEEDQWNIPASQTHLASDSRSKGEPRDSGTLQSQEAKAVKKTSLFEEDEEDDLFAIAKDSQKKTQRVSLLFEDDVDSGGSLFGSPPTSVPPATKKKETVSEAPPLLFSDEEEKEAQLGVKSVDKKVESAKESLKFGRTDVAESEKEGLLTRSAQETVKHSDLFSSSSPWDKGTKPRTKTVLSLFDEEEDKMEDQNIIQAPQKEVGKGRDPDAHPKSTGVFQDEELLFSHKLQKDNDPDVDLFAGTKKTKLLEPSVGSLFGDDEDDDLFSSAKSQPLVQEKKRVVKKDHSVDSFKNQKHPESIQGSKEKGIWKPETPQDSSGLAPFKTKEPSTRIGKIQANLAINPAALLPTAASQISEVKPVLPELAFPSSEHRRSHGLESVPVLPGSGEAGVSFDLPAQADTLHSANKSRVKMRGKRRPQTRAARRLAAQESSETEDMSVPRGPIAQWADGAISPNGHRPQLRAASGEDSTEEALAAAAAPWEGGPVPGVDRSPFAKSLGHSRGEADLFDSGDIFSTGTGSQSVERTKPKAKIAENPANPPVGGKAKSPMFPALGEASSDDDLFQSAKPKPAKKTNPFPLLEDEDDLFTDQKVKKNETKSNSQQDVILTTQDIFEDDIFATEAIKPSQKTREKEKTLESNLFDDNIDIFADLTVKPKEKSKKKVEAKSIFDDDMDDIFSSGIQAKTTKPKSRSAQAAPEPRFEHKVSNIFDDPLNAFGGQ
UniProt Q6NUQ1: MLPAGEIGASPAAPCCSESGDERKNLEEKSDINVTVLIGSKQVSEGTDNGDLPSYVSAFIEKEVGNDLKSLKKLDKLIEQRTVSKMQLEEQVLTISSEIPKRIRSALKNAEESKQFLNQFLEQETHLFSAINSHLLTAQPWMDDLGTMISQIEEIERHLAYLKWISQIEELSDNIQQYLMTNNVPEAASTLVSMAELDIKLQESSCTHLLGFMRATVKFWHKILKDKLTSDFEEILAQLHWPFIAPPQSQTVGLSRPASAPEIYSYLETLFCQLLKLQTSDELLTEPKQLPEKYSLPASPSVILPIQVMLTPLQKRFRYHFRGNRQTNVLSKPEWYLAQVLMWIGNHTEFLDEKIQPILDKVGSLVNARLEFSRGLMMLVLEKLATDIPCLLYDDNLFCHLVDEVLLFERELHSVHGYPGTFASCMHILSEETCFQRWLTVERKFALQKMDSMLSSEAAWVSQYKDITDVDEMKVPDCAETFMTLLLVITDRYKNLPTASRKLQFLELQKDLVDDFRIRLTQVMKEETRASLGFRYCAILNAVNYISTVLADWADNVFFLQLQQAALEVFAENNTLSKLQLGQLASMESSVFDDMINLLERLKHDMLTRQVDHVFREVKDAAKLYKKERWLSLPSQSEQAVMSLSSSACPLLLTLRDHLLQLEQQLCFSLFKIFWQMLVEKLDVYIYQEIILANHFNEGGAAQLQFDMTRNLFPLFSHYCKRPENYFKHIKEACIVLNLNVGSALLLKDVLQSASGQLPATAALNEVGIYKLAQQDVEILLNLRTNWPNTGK
UniProt Q86V21: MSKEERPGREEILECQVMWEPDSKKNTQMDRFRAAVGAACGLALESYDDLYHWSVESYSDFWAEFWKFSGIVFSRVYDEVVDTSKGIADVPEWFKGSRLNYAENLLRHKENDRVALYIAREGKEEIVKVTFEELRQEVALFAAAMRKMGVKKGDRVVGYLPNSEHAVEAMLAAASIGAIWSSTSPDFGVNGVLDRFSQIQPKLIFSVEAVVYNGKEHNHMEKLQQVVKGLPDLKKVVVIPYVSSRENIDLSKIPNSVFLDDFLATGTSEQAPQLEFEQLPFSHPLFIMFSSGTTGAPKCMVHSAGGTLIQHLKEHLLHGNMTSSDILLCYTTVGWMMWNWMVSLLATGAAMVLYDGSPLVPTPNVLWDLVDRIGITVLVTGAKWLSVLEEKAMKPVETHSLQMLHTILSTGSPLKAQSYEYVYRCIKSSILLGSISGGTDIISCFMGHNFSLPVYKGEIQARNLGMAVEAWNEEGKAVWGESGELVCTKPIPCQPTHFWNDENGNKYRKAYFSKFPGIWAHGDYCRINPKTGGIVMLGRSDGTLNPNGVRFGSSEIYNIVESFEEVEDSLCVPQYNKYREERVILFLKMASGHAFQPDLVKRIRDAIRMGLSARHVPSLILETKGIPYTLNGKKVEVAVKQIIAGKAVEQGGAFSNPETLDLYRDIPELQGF
UniProt Q7L2H7, whole entry: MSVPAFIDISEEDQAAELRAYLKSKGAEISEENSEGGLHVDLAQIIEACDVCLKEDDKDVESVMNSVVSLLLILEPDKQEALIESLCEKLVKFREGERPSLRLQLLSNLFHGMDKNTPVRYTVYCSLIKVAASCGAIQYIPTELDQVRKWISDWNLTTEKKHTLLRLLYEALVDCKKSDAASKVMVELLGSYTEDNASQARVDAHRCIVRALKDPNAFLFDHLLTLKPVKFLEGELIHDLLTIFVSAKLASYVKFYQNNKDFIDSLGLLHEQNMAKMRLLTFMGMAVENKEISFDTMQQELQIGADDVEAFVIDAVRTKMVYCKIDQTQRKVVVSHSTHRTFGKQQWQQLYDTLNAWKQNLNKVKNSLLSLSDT
UniProt Q7Z6V5: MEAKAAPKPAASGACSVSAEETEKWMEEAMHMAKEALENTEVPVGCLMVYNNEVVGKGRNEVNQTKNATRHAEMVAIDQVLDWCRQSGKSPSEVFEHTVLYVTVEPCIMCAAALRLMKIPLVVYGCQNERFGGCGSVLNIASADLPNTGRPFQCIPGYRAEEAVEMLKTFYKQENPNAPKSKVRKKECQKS
UniProt Q5VTR2, whole entry: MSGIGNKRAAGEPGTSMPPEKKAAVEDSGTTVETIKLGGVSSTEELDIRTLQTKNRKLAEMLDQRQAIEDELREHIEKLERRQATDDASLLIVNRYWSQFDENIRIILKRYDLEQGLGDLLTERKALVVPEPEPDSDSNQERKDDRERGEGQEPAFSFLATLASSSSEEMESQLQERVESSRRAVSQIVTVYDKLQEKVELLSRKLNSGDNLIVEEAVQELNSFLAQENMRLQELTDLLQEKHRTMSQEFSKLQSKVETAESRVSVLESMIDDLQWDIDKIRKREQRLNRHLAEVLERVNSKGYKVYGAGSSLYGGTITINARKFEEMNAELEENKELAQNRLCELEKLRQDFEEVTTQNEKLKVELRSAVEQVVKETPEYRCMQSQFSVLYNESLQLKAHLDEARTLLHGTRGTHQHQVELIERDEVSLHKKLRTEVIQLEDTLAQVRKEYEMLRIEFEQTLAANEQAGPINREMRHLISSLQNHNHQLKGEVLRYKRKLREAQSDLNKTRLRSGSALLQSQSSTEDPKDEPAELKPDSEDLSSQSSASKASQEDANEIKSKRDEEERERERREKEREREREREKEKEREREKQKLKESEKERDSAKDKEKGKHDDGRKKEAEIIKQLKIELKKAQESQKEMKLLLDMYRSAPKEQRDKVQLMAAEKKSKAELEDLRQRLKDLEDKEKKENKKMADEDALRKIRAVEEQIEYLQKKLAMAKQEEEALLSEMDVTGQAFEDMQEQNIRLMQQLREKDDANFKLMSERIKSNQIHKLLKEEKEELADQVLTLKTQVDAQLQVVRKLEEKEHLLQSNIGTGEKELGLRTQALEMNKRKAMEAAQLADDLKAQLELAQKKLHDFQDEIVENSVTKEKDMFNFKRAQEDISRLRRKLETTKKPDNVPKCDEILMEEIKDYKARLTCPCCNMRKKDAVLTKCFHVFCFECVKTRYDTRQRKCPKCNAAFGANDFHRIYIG
UniProt Q6N069: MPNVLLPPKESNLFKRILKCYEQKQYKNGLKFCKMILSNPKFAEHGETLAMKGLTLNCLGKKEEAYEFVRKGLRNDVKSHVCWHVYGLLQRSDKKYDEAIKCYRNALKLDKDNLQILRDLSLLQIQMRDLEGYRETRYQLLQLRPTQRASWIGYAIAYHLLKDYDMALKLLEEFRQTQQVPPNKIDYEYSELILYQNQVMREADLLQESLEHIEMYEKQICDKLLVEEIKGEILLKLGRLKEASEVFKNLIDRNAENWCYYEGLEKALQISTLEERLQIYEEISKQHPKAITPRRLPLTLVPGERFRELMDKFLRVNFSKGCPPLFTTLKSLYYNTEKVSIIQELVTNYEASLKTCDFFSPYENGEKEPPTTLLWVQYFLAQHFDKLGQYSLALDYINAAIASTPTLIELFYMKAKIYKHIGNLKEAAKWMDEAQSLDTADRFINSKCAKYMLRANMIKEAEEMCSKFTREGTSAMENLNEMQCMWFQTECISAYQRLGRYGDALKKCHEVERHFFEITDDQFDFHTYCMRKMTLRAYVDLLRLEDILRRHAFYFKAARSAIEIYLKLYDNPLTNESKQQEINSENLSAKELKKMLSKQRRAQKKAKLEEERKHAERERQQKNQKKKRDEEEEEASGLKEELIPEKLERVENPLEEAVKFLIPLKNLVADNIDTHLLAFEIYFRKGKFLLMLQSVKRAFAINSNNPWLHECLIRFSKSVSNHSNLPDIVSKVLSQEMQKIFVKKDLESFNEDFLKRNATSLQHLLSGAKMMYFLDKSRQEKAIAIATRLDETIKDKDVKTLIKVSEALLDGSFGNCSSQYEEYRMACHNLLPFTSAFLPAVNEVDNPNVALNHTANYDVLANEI
UniProt Q86W92: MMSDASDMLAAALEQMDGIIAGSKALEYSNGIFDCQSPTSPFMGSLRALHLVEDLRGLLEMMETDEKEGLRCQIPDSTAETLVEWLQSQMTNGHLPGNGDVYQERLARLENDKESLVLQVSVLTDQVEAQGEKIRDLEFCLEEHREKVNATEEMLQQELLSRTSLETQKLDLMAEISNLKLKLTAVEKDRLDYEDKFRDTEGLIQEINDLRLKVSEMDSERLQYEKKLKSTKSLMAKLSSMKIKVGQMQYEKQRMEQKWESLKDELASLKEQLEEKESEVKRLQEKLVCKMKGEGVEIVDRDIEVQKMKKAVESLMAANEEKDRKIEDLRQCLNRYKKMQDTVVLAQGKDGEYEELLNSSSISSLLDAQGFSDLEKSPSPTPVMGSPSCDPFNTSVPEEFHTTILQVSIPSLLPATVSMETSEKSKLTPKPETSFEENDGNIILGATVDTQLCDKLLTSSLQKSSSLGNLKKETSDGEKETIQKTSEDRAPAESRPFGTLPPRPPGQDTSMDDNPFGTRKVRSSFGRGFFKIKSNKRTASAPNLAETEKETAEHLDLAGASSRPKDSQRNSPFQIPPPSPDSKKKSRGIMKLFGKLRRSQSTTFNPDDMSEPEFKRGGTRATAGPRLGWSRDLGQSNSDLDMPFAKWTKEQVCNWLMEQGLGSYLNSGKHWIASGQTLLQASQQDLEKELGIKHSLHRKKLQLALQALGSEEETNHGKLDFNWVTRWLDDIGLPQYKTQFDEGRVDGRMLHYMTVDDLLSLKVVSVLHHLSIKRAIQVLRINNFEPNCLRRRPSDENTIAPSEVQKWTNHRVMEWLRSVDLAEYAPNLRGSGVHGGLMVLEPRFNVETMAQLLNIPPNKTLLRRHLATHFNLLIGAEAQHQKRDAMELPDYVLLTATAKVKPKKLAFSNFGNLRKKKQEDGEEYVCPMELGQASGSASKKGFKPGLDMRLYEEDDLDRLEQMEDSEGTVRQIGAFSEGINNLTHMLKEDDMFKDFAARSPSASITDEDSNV
UniProt Q7L9L4: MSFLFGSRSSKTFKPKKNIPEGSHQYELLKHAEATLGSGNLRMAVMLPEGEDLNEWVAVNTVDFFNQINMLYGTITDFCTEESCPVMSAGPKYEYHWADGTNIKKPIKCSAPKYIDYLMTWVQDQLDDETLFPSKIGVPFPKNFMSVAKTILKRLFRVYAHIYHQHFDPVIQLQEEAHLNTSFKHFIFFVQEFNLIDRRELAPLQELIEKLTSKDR

Compound: Nc1nc2c(ncn2[C@@H]2O[C@H](COP(=O)(O)OP(=O)(O)OP(=O)(O)O)[C@@H](O)[C@H]2O)c(=O)[nH]1 [guanosine triphosphate]
Assay: NP40-soluble protein abundance relative to vehicle (solubility fold change) (ratio); higher = more soluble protein in presence of GTP
How it was run: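 Crude Jurkat lysate, prepared by Dounce homogenisation, was exposed to eight concentrations from 0.1 to 10 mM for 10 min at room temperature and then 3 min at 37 °C. Solubilisation used 0.8% NP40 with benzonase for 60 min at 4 °C, followed by ultracentrifugation and TMT labelling of the supernatant for LC-MS/MS. After vsn normalisation of intensities, each value is the fold change against the detergent-processed vehicle within each replicate, across three independent experiments.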

| Target | NP40-soluble protein abundance (concentration: 0.1mM) | NP40-soluble protein abundance (concentration: 0.5mM) | NP40-soluble protein abundance (concentration: 1mM) | NP40-soluble protein abundance (concentration: 2mM) | NP40-soluble protein abundance (concentration: 4mM) | NP40-soluble protein abundance (concentration: 6mM) | NP40-soluble protein abundance (concentration: 8mM) | NP40-soluble protein abundance (concentration: 10mM) |
| --- | --- | --- | --- | --- | --- | --- | --- | --- |
| UniProt Q6ZMI0 and related entries | 0.995 ± 0.052 | 0.969 ± 0.027 | 1.02 ± 0.027 | 0.992 ± 0.025 | 0.973 ± 0.011 | 0.961 ± 0.051 | 0.967 ± 0.094 | 0.988 ± 0.033 |
| UniProt Q641Q2 and related entries | 1 ± 0.11 | 0.945 ± 0.061 | 1.02 ± 0.031 | 1.05 ± 0.18 | 0.951 ± 0.12 | 0.921 ± 0.076 | 1.07 ± 0.073 | 1.03 ± 0.16 |
| UniProt Q75QN2 and related entries | 1.18 ± 0.17 | 1.17 ± 0.12 | 1.16 ± 0.055 | 1.24 ± 0.17 | 1.35 ± 0.24 | 1.25 ± 0.16 | 1.23 ± 0.15 | 1.18 ± 0.091 |
| UniProt Q7Z5K2 and related entries | 1 ± 0.042 | 1.03 ± 0.011 | 1.026 ± 0.0099 | 1.02 ± 0.011 | 1 ± 0.012 | 0.9971 ± 0.0042 | 1.02 ± 0.038 | 1 ± 0.017 |
| RINT1 (UniProt Q6NUQ1) | 1.16 ± 0.025 | 1.21 ± 0.1 | 1.17 ± 0.042 | 1.19 ± 0.1 | 1.22 ± 0.1 | 1.16 ± 0.087 | 1.18 ± 0.098 | 1.13 ± 0.099 |
| UniProt Q6UWP7 and related entries | 1.12 ± 0.086 | 1.14 ± 0.15 | 1.03 ± 0.025 | 1.11 ± 0.065 | 0.991 ± 0.061 | 1.02 ± 0.11 | 0.968 ± 0.082 | 0.991 ± 0.13 |
| UniProt Q6P1J9 | 0.9922 ± 0.0089 | 0.996 ± 0.028 | 0.963 ± 0.035 | 0.969 ± 0.028 | 0.963 ± 0.017 | 0.958 ± 0.042 | 0.902 ± 0.034 | 0.84 ± 0.048 |
| UniProt Q6Y7W6 and related entries | 0.984 ± 0.041 | 0.996 ± 0.059 | 1.05 ± 0.056 | 1.09 ± 0.08 | 1.13 ± 0.062 | 1.16 ± 0.079 | 1.21 ± 0.062 | 1.2 ± 0.079 |
| AACS (UniProt Q86V21) | 0.996 ± 0.085 | 0.995 ± 0.037 | 0.874 ± 0.05 | 0.934 ± 0.028 | 0.923 ± 0.061 | 0.862 ± 0.049 | 0.819 ± 0.097 | 0.867 ± 0.11 |
| UniProt Q6PI26 and related entries | 1.03 ± 0.038 | 1.04 ± 0.082 | 1.08 ± 0.1 | 1.02 ± 0.092 | 1.03 ± 0.13 | 1 ± 0.051 | 1.04 ± 0.14 | 0.997 ± 0.067 |
| UniProt Q7L2H7 | 1.02 ± 0.077 | 1.02 ± 0.11 | 0.977 ± 0.096 | 1.07 ± 0.16 | 1.14 ± 0.23 | 1.15 ± 0.21 | 1.17 ± 0.13 | 1.32 ± 0.24 |
| UniProt Q86V48 and related entries | 0.953 ± 0.056 | 0.967 ± 0.042 | 1.01 ± 0.051 | 0.99 ± 0.097 | 1.03 ± 0.088 | 1.08 ± 0.081 | 1.17 ± 0.1 | 1.2 ± 0.11 |
| FASTKD5 (UniProt Q7L8L6) | 1.26 ± 0.054 | 0.996 ± 0.057 | 1.084 ± 0.0057 | 1 ± 0.092 | 1.01 ± 0.034 | 0.909 ± 0.014 | 1.04 ± 0.011 | 0.8269 ± 0.0066 |
| UniProt Q7Z6V5 and related entries | 1.07 ± 0.07 | 0.963 ± 0.12 | 1.237 ± 0.008 | 1.05 ± 0.17 | 1.16 ± 0.09 | 1.1 ± 0.016 | 1.09 ± 0.086 | 1.23 ± 0.1 |
| RNF20 (UniProt Q5VTR2) | 0.98 ± 0.057 | 0.982 ± 0.055 | 0.978 ± 0.044 | 0.948 ± 0.063 | 0.957 ± 0.054 | 0.947 ± 0.052 | 0.987 ± 0.065 | 0.95 ± 0.056 |
| UniProt Q6UXB8 and related entries | 0.896 ± 0.081 | 0.922 ± 0.062 | 0.955 ± 0.063 | 0.919 ± 0.11 | 0.902 ± 0.12 | 0.924 ± 0.082 | 0.929 ± 0.086 | 0.918 ± 0.06 |
| UniProt Q6N069 | 1.18 ± 0.17 | 1.15 ± 0.15 | 0.945 ± 0.049 | 1.11 ± 0.16 | 1.08 ± 0.1 | 1.01 ± 0.11 | 0.926 ± 0.086 | 0.926 ± 0.13 |
| UniProt Q712K3 | 0.89 ± 0.017 | 0.814 ± 0.026 | 0.882 ± 0.015 | 0.86 ± 0.014 | 0.838 ± 0.055 | 0.832 ± 0.051 | 0.801 ± 0.086 | 0.836 ± 0.035 |
| NADSYN1 (UniProt Q6IA69) | 0.95 ± 0.07 | 1.02 ± 0.083 | 1.05 ± 0.041 | 1 ± 0.027 | 1.01 ± 0.039 | 0.982 ± 0.034 | 0.956 ± 0.072 | 0.97 ± 0.037 |
| CEP135 (UniProt Q66GS9) | 1.01 ± 0.078 | 1.02 ± 0.065 | 1.08 ± 0.096 | 1 ± 0.15 | 0.991 ± 0.14 | 1.01 ± 0.081 | 0.963 ± 0.15 | 0.956 ± 0.18 |
| UniProt Q86W92 and related entries | 1.11 ± 0.017 | 1.063 ± 0.0067 | 1.07 ± 0.024 | 1 ± 0.024 | 0.977 ± 0.036 | 1.08 ± 0.019 | 1.11 ± 0.075 | 1.1 ± 0.06 |
| Q7L9L4 and related entries (UniProt Q9H8S9+Q7L9L4) | 0.983 ± 0.014 | 0.965 ± 0.031 | 0.947 ± 0.045 | 0.933 ± 0.041 | 0.991 ± 0.049 | 0.899 ± 0.11 | 0.915 ± 0.1 | 0.915 ± 0.11 |
| UniProt Q6ZVM7 and related entries | 0.946 ± 0.073 | 0.92 ± 0.045 | 1.01 ± 0.074 | 0.957 ± 0.07 | 0.87 ± 0.071 | 0.919 ± 0.062 | 0.885 ± 0.057 | 0.928 ± 0.021 |
| UniProt Q5VW32 and related entries | 0.959 ± 0.04 | 0.886 ± 0.051 | 0.902 ± 0.051 | 0.859 ± 0.03 | 0.877 ± 0.09 | 0.845 ± 0.071 | 0.823 ± 0.098 | 0.811 ± 0.074 |
| UniProt Q6W2J9 and related entries | 1.02 ± 0.11 | 1.03 ± 0.085 | 1.049 ± 0.0058 | 1.08 ± 0.034 | 1.14 ± 0.074 | 1.154 ± 0.008 | 1.17 ± 0.024 | 1.12 ± 0.03 |
| ATL3 (UniProt Q6DD88) | 0.978 ± 0.045 | 0.977 ± 0.027 | 0.954 ± 0.051 | 0.919 ± 0.058 | 0.928 ± 0.068 | 0.922 ± 0.054 | 0.946 ± 0.069 | 0.907 ± 0.063 |
| UniProt Q5VW36 | 0.906 ± 0.12 | 0.82 ± 0.12 | 0.7823 ± 0.0067 | 0.849 ± 0.12 | 0.893 ± 0.04 | 0.918 ± 0.13 | 0.933 ± 0.1 | 0.984 ± 0.15 |

Taken from the listing (2 entries):

| Target | NP40-soluble protein abundance (concentration: 0.1mM) | NP40-soluble protein abundance (concentration: 0.5mM) | NP40-soluble protein abundance (concentration: 1mM) | NP40-soluble protein abundance (concentration: 2mM) | NP40-soluble protein abundance (concentration: 4mM) | NP40-soluble protein abundance (concentration: 6mM) | NP40-soluble protein abundance (concentration: 8mM) | NP40-soluble protein abundance (concentration: 10mM) |
| --- | --- | --- | --- | --- | --- | --- | --- | --- |
| UniProt Q6P1J9 | 0.9922 ± 0.0089 | 0.996 ± 0.028 | 0.963 ± 0.035 | 0.969 ± 0.028 | 0.963 ± 0.017 | 0.958 ± 0.042 | 0.902 ± 0.034 | 0.84 ± 0.048 |
| UniProt Q6Y7W6 and related entries | 0.984 ± 0.041 | 0.996 ± 0.059 | 1.05 ± 0.056 | 1.09 ± 0.08 | 1.13 ± 0.062 | 1.16 ± 0.079 | 1.21 ± 0.062 | 1.2 ± 0.079 |
